# Experimental data taken from PMC7819943, “Rice protein-binding microarrays: a tool to detect cis-acting elements near promoter regions in rice”.
# The chains behind the UniProt entries cited, without tags or fusion partners.
# UniProt Q0JBA9, entry or part of it: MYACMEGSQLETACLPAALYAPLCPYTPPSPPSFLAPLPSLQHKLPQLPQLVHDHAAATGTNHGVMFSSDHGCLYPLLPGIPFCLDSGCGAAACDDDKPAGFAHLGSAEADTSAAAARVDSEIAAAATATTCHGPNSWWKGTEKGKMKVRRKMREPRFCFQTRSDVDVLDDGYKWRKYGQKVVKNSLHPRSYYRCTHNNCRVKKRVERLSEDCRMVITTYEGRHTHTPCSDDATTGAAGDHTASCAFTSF
# The list shows a part of the results.
# Target: OsWRKY34 (Oryza sativa, UniProt Q0JBA9 1-250)
# Assay: protein-binding microarray (RPBM); PBS, 2% BSA, 51.3 ng/ul salmon testes DNA, 50 uM zinc acetate, 200 nM TF, 25 C, 1 h; high values mean tight binding
# Details: protein: recombinant; tags: N-terminal polyhistidine and DsRed monomer fusion (pET32a); label: CyDye5-dUTP incorporated in the synthesized complementary strand; 3' TTTTT single-stranded linker to array surface; dsDNA, one strand shown
# Summary of the method: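 Per-feature fluorescence intensity (arbitrary units), read on an Axon 4000B scanner, is the binding signal. Transcription factors carrying an N-terminal polyhistidine tag and DsRed fusion were expressed in E. coli BL21-CodonPlus and purified on Ni–NTA. A custom Agilent array, made double-stranded by primer extension with Cy5-dUTP and blocked with 2% BSA, was incubated with 200 nM protein in PBS, 2% BSA, salmon testes DNA and 50 µM zinc acetate at 25 °C for 1 h and then washed.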
row,Sequence,binding signal
1,GAATTCTGTTACTAATTCTGTTCCGATTTCCACTCGAGCACGGAGTCACCTAGTGCAG,8200 fluorescence intensity (a.u.)
2,CTAAATGTTTGACGCCGTTGACTTTTTAAATATGTTTGACCGGAGTCACCTAGTGCAG,32300 fluorescence intensity (a.u.)
3,GTGTGGAGGTGGTGGGGAGTGTGAGGAGAGGGAGGGGATGCGGAGTCACCTAGTGCAG,18000 fluorescence intensity (a.u.)
4,CTCTCGCGCCGGAGCACAGCTATAGCTGATTTCTTTAATTCGGAGTCACCTAGTGCAG,9580 fluorescence intensity (a.u.)
5,ATACACACATCACATCTTGAAGTCCGTGCTGCAGATCTGCCGGAGTCACCTAGTGCAG,9620 fluorescence intensity (a.u.)
6,CTTGGTGGTTCTTTTCTTCTTCTAGATTTATCCCCATTTTCGGAGTCACCTAGTGCAG,16700 fluorescence intensity (a.u.)
7,TGGCCTGCTGCTCTTCTCTTTTATCTTTTATCTCTTTAAACGGAGTCACCTAGTGCAG,8370 fluorescence intensity (a.u.)
8,AGAACACAAGCATCTTCTTTTGTGTCATTTGCTACTGACACGGAGTCACCTAGTGCAG,11500 fluorescence intensity (a.u.)
9,TATATCATTATCTTGTGCTTGCGAGCGTGTTCCCTGCAACCGGAGTCACCTAGTGCAG,8810 fluorescence intensity (a.u.)
10,CCCACCCGCAACCCGCGCCGCCGCCGCCGCCATCCGCCTCCGGAGTCACCTAGTGCAG,8650 fluorescence intensity (a.u.)
11,TCGCCTGACCTGATCGCCGTGAAGTTCCATCCCGATCGACCGGAGTCACCTAGTGCAG,9780 fluorescence intensity (a.u.)
12,ACGGTTTGTGTGAGTTTAGGGGTAAATATTTCTGCTTTTGCGGAGTCACCTAGTGCAG,8320 fluorescence intensity (a.u.)
13,GTCCCGATTGTCTTGTAAATTATGCTACTTGGCCATGAAACGGAGTCACCTAGTGCAG,10200 fluorescence intensity (a.u.)
14,GTTTCTATCCGATCACCTTCACCCTCCGTCTCCAGTAGTACGGAGTCACCTAGTGCAG,8840 fluorescence intensity (a.u.)
15,CGTCACTTGAAATCTACCCCGGTATTTTTCTTTTATTTTTCGGAGTCACCTAGTGCAG,9380 fluorescence intensity (a.u.)
16,AATTATCTTGGTGTTGGTGCATAATAAACATATATAATGACGGAGTCACCTAGTGCAG,8360 fluorescence intensity (a.u.)
17,CCACCTCCGGCGAGCTCCTCACCCACGCAACCATGGTGCTCGGAGTCACCTAGTGCAG,8580 fluorescence intensity (a.u.)
18,TAACAGCGCCGACCCCACGACCACCACCGCCGCCGGCATGCGGAGTCACCTAGTGCAG,8300 fluorescence intensity (a.u.)
19,TCCGAGGCTCTGACTTCCTAGTTCCCACTTCCGAGCAAACCGGAGTCACCTAGTGCAG,10500 fluorescence intensity (a.u.)
20,CGTCGTATTCGGCGGCGGCGGGGAAGCAGGTGGGGAAACGCGGAGTCACCTAGTGCAG,13100 fluorescence intensity (a.u.)
21,CTCTCTCATCTGATTCTTGCGTTTTTCCTGTGGTCCAATCCGGAGTCACCTAGTGCAG,12000 fluorescence intensity (a.u.)

row,Sequence,binding signal
1,CGAACTTCACTCTACCTCTCTAGTTTTCTTTTTTATCACTCGGAGTCACCTAGTGCAG,12900 fluorescence intensity (a.u.)
2,TATATATACCGCTTCCCGCCCCGCACCACAACCCAACTCACGGAGTCACCTAGTGCAG,8320 fluorescence intensity (a.u.)
3,GGGCATGTCTTTTTAGCTAATGGATGGTGGATTATAATGGCGGAGTCACCTAGTGCAG,9510 fluorescence intensity (a.u.)
4,GCAGCACACTAATCGATCACCGCACTATACACAATACGACCGGAGTCACCTAGTGCAG,10000 fluorescence intensity (a.u.)
5,ATCCACCCGCGGCCGCCGCCGACGCCGCCATCGATGCCGGCGGAGTCACCTAGTGCAG,8300 fluorescence intensity (a.u.)
6,ATGGTGTGTGATTATTCAATCCATTGTTTTTTACTTTGCGCGGAGTCACCTAGTGCAG,9570 fluorescence intensity (a.u.)
7,ATATCCAACGTTTGACCGTTTGTTTTATTTGAAATTTTTTCGGAGTCACCTAGTGCAG,9460 fluorescence intensity (a.u.)
8,TCACTGGAAGCTCTCTCACTGACCATCTTTTTTTTTCCTTCGGAGTCACCTAGTGCAG,10600 fluorescence intensity (a.u.)
9,CTCGCTGTTCTTCTCTCTTATCTTTTATCTCTTTAAAATACGGAGTCACCTAGTGCAG,15000 fluorescence intensity (a.u.)
10,CTATCCGTCTCTCCTAATTTTAGTCAGTTTTCCACGCGTTCGGAGTCACCTAGTGCAG,10000 fluorescence intensity (a.u.)
11,GTGGTTTGTGGGTGTTTGGATCGCATGCATTTGGTGTGAGCGGAGTCACCTAGTGCAG,9240 fluorescence intensity (a.u.)
12,ATCCACTAATTAGGCAATTTCCCGCTGTCAAGTATGCTACCGGAGTCACCTAGTGCAG,8690 fluorescence intensity (a.u.)
13,TCCTCTTCCACCAACACCTCCGGCGCCGCCATCGTCCACCCGGAGTCACCTAGTGCAG,9480 fluorescence intensity (a.u.)
14,AAGGACCCAGCTGTTCGCCACGTGTGCGTGTTGACTTCCACGGAGTCACCTAGTGCAG,9780 fluorescence intensity (a.u.)
15,TGTGTTGCAGCTGGCTATAAATTTATAGACCGTTGTTCATCGGAGTCACCTAGTGCAG,8240 fluorescence intensity (a.u.)
16,CGCCTTCCATTGACTTCAACGGATTCCTCATTCCTGTGACCGGAGTCACCTAGTGCAG,8050 fluorescence intensity (a.u.)
17,GCACTCCCTTCCGATTGTACTTGTGCTTGTAGTAATTCTTCGGAGTCACCTAGTGCAG,9560 fluorescence intensity (a.u.)
18,TCTCTCTTGCATACTGACAAGCAGAAATCCCCTTAATACACGGAGTCACCTAGTGCAG,9080 fluorescence intensity (a.u.)
19,CTCTCCGCCGCTCCCCGTTGCTACGACCGGCTGCCTCGTCCGGAGTCACCTAGTGCAG,8480 fluorescence intensity (a.u.)
20,GCCCACCCAGCTTCATCGGATCCGGCACGCGGCGACAATGCGGAGTCACCTAGTGCAG,8670 fluorescence intensity (a.u.)
21,CTCCACTGCCACTTCACTGATCGAGCTCACCTTTTCCTCTCGGAGTCACCTAGTGCAG,10400 fluorescence intensity (a.u.)

# Nothing new here: an excerpt of the list.
row,Sequence,binding signal
7,ATATCCAACGTTTGACCGTTTGTTTTATTTGAAATTTTTTCGGAGTCACCTAGTGCAG,9460 fluorescence intensity (a.u.)
8,TCACTGGAAGCTCTCTCACTGACCATCTTTTTTTTTCCTTCGGAGTCACCTAGTGCAG,10600 fluorescence intensity (a.u.)
9,CTCGCTGTTCTTCTCTCTTATCTTTTATCTCTTTAAAATACGGAGTCACCTAGTGCAG,15000 fluorescence intensity (a.u.)
10,CTATCCGTCTCTCCTAATTTTAGTCAGTTTTCCACGCGTTCGGAGTCACCTAGTGCAG,10000 fluorescence intensity (a.u.)
11,GTGGTTTGTGGGTGTTTGGATCGCATGCATTTGGTGTGAGCGGAGTCACCTAGTGCAG,9240 fluorescence intensity (a.u.)
12,ATCCACTAATTAGGCAATTTCCCGCTGTCAAGTATGCTACCGGAGTCACCTAGTGCAG,8690 fluorescence intensity (a.u.)
13,TCCTCTTCCACCAACACCTCCGGCGCCGCCATCGTCCACCCGGAGTCACCTAGTGCAG,9480 fluorescence intensity (a.u.)
14,AAGGACCCAGCTGTTCGCCACGTGTGCGTGTTGACTTCCACGGAGTCACCTAGTGCAG,9780 fluorescence intensity (a.u.)
15,TGTGTTGCAGCTGGCTATAAATTTATAGACCGTTGTTCATCGGAGTCACCTAGTGCAG,8240 fluorescence intensity (a.u.)
16,CGCCTTCCATTGACTTCAACGGATTCCTCATTCCTGTGACCGGAGTCACCTAGTGCAG,8050 fluorescence intensity (a.u.)
17,GCACTCCCTTCCGATTGTACTTGTGCTTGTAGTAATTCTTCGGAGTCACCTAGTGCAG,9560 fluorescence intensity (a.u.)

# Later entries

row,Sequence,binding signal
1,GTATGTCCATCTATCTCGCCGCCGCCGCCATTTTTGTTTCCGGAGTCACCTAGTGCAG,12300 fluorescence intensity (a.u.)
2,ACGTATTGTGCCAAGGTACTGTTCATGATGTATTGTATTACGGAGTCACCTAGTGCAG,8040 fluorescence intensity (a.u.)
3,TAGTCCGTTCTGTTGTCATCTACTACTCTTGTTTGTGTTTCGGAGTCACCTAGTGCAG,16100 fluorescence intensity (a.u.)
4,AAATAGCAGAACAAAAATATGTCACCTTTTTGCAACTTTCCGGAGTCACCTAGTGCAG,9690 fluorescence intensity (a.u.)
5,ATTATTCGTTTGCAAATATAATGTTTAGCTTATTCCCGAACGGAGTCACCTAGTGCAG,8160 fluorescence intensity (a.u.)
6,GCTTATGGGTCTCTTTACAGCTCTCGGGGCTATCGATTGACGGAGTCACCTAGTGCAG,9150 fluorescence intensity (a.u.)
7,ACAGGGTGTAGGGGCGTCTCAGGAGGCTATGCCTCTCCCACGGAGTCACCTAGTGCAG,8450 fluorescence intensity (a.u.)
8,CTTTGCATTTCATCTCGGTAGAACACCTGCCTAGCTTTCACGGAGTCACCTAGTGCAG,11600 fluorescence intensity (a.u.)
9,ATCCCCACCGTTGACCGAAGTTGACCTCCAAGAATCCTGACGGAGTCACCTAGTGCAG,13800 fluorescence intensity (a.u.)
10,GCTCTATCACTTCCATTTCAGTCCATTTAGCTTTCGGGCCCGGAGTCACCTAGTGCAG,9090 fluorescence intensity (a.u.)
11,ATCGTATTTTCAGCCCATGGTTGCGCGTAGTTTCGGCCCACGGAGTCACCTAGTGCAG,8670 fluorescence intensity (a.u.)
12,CACCCGCTCCCCTCCACTCGCAGACCCAACCCCTATAAATCGGAGTCACCTAGTGCAG,8280 fluorescence intensity (a.u.)
13,CTTTTTTTTGGTCAAAATCCTTTAGGTTTTATCAAATTTACGGAGTCACCTAGTGCAG,8410 fluorescence intensity (a.u.)
14,TCTCCTCTTCTTTTTCTTCCTTCCTTTTACTCGCTCGCTCCGGAGTCACCTAGTGCAG,9930 fluorescence intensity (a.u.)
15,GCCATGATGATTCCTTACCGCTGGGTGGGGCCCACACGTCCGGAGTCACCTAGTGCAG,10200 fluorescence intensity (a.u.)
16,CTCATCTTAAATTCTTGGTTGTGTTCGTTATTCCAGATTGCGGAGTCACCTAGTGCAG,9080 fluorescence intensity (a.u.)
17,TTCTAAATAGTTTATGGAATTCACACACACGTTCTCTCTACGGAGTCACCTAGTGCAG,9410 fluorescence intensity (a.u.)
18,CAGTCTCCTCTGATGCAGTCTCGTTCTCTGTTTCTTTTTGCGGAGTCACCTAGTGCAG,10600 fluorescence intensity (a.u.)
19,ACCCACCCACCCACCCGGTCTGTCTCCTAACCCCGGTCGCCGGAGTCACCTAGTGCAG,12600 fluorescence intensity (a.u.)
20,TGCACACATGATGCACATGTCGCGCGCGCTGCCTCGCCACCGGAGTCACCTAGTGCAG,8950 fluorescence intensity (a.u.)
21,CCTCACTCGATGCCACTCTTCTCTGACCTCTATCATCAGACGGAGTCACCTAGTGCAG,8530 fluorescence intensity (a.u.)

row,Sequence,binding signal
1,TGACATTGGCGCCATCCTTCATTGACTTGACGACCGCCATCGGAGTCACCTAGTGCAG,11200 fluorescence intensity (a.u.)
2,TATTGATGTATATTACTCCCACCTTTTTAAATATTTGACACGGAGTCACCTAGTGCAG,8990 fluorescence intensity (a.u.)
3,CGCTCTCTCTCTCCCATCTTGTGTCTCTTTCTTGTTTACTCGGAGTCACCTAGTGCAG,10400 fluorescence intensity (a.u.)
4,ATATATCCTCCCTTGCGGTGCCTTGGCAGTTTTCTCGATTCGGAGTCACCTAGTGCAG,9280 fluorescence intensity (a.u.)
5,TCCGTCTCCAATGACTCCCGATTCCTTTCTGTAATCTAATCGGAGTCACCTAGTGCAG,8240 fluorescence intensity (a.u.)
6,GCATCTCCATGGTCTCCTTGTCGACGCGGATCTCCTCCACCGGAGTCACCTAGTGCAG,11000 fluorescence intensity (a.u.)
7,CGCCTACGACTCTCTACATCTCTCCACCTGCATTACTACGCGGAGTCACCTAGTGCAG,10100 fluorescence intensity (a.u.)
8,CAGTGATGTTTTTGTGCTTAAAGAATGTACTTGGCCCAATCGGAGTCACCTAGTGCAG,8210 fluorescence intensity (a.u.)
9,CCTATACTTGCTCATAGCCTCGTCTCCTTCCTCTATTACTCGGAGTCACCTAGTGCAG,8880 fluorescence intensity (a.u.)
10,TGCATTGACTTTCGGCGGCGCGTTGCAGATCCTGGTTCTTCGGAGTCACCTAGTGCAG,11500 fluorescence intensity (a.u.)
11,GTGTGCGTCTCTCTCTGTCTCACTCTCTGTGTGAGTGCGACGGAGTCACCTAGTGCAG,8980 fluorescence intensity (a.u.)
12,TTCCTCTTCTCTTCCGCGCCATTTCTTGATCCCCGTCATGCGGAGTCACCTAGTGCAG,8420 fluorescence intensity (a.u.)
13,GACCTCGTGCGCTCCCACCACCACCACCCCGCGGCTTCGCCGGAGTCACCTAGTGCAG,9110 fluorescence intensity (a.u.)
14,TGCACTCCACCGCACATAGACCGGACGTATGCTCTACACTCGGAGTCACCTAGTGCAG,9070 fluorescence intensity (a.u.)
15,CTACCACTGTCCGCCATTACATTACAAACCACACTGCGCGCGGAGTCACCTAGTGCAG,11400 fluorescence intensity (a.u.)
16,GACAATCCGACCTGTAATCCACCCGACTATTGTTGGTTGTCGGAGTCACCTAGTGCAG,8280 fluorescence intensity (a.u.)
17,ATCAATACGTGACTTGCTAGATTCTGTACTTTCCATCGTCCGGAGTCACCTAGTGCAG,10800 fluorescence intensity (a.u.)
18,TCAGTCAATTTCTCTCGTCAACTCCTCTGCCTCACTCTGCCGGAGTCACCTAGTGCAG,10500 fluorescence intensity (a.u.)
19,CGGGCGATTCTAGGGTTATGGTTAGGGTTTTTTTTATTTTCGGAGTCACCTAGTGCAG,14500 fluorescence intensity (a.u.)
20,TGCCTACACAGTACACACAGTGCGTTTCCATTTTGTTCTTCGGAGTCACCTAGTGCAG,9140 fluorescence intensity (a.u.)
21,CCTATATTTTGGTGGTGTTTTATGCCCTCACTATCATTTTCGGAGTCACCTAGTGCAG,10900 fluorescence intensity (a.u.)
